Taken from: PubChem BioAssay AID1224830 (NIAID, 2016)
Shown is one part, drawn at random, of about 18,000 deposited reagents. About 2,900 of all reagents (16%) count as active. 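Calls are made per well; low scores hint the gene aids the LPS response, high scores that it dampens it.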 Repeated entries: four replicate wells of each siRNA pool. No sequences are given here.

Assay: 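Genes whose knock-down alters the TNF-alpha reporter response to LPS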 (primary screen)
Cells: human THP-1 monocytic leukaemia cells, TNF dual-luciferase reporter clone, PMA-differentiated to macrophage-like cells
Reagent: siRNA pool against human genes, 50 nM
Timing: LPS for 4 h, given about 3 days after siRNA transfection
Challenge: bacterial LPS (TLR4 ligand), 10 ng/ml
Read-out: 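Ratio of firefly to renilla light, scaled to the plate median and expressed as a robust z-score per replicate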
Reading the numbers: TNF reporter robust z-score: higher = stronger TNF reporter response to LPS
Call rule: 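Each well counts as active if its z-score is over 2.8 or under -1.5; controls are left without a call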

Against FBP1 the deposit lists TNF reporter robust z-score -0.91; inactive.
Depletion of FBP1 resulted in: TNF reporter robust z-score -0.73; inactive.
FBP1 gave TNF reporter robust z-score -0.2; inactive.
For FBP1, the values are TNF reporter robust z-score -0.49; inactive.
With knock-down of ZNF268, the screen gave TNF reporter robust z-score -0.54; inactive.
Silencing of ZNF268 gave: TNF reporter robust z-score 0.26; inactive.
For ZNF268, the values are TNF reporter robust z-score -0.2; inactive.
Against ZNF268 the deposit lists TNF reporter robust z-score 0.41; inactive.
Knock-down of SLC25A53 gave: TNF reporter robust z-score -0.71; inactive.
For SLC25A53, the values are TNF reporter robust z-score -0.9; inactive.
Depletion of SLC25A53 came out at: TNF reporter robust z-score -0.25; inactive.
Against SLC25A53, the values are TNF reporter robust z-score -1.02; inactive.
Against F2RL3, the values are TNF reporter robust z-score -0.48; inactive.
Against F2RL3 the deposit lists TNF reporter robust z-score -0.71; inactive.
With knock-down of F2RL3, the screen gave TNF reporter robust z-score -0.14; inactive.
Against F2RL3, the values are TNF reporter robust z-score -0.02; inactive.
CNOT8 scored TNF reporter robust z-score 0.34; inactive.
For CNOT8, the entry reads TNF reporter robust z-score 0.54; inactive.
Silencing of CNOT8 came out at: TNF reporter robust z-score 0.68; inactive.
For CNOT8, the values are TNF reporter robust z-score 0.16; inactive.
Knock-down of PPM1J came out at: TNF reporter robust z-score 0.17; inactive.
Knock-down of PPM1J resulted in: TNF reporter robust z-score -0.65; inactive.
Against PPM1J the deposit lists TNF reporter robust z-score -0.5; inactive.
PPM1J gave TNF reporter robust z-score 0.31; inactive.
For BAHD1, the values are TNF reporter robust z-score -0.56; inactive.
Depletion of BAHD1 resulted in: TNF reporter robust z-score -0.76; inactive.
After knock-down of BAHD1, the record shows TNF reporter robust z-score -0.42; inactive.
With knock-down of BAHD1, the record shows TNF reporter robust z-score -0.82; inactive.
For UBE2E2 the deposit lists TNF reporter robust z-score 2.25; inactive.
Silencing of UBE2E2 gave: TNF reporter robust z-score 1.99; inactive.
For UBE2E2 the deposit lists TNF reporter robust z-score 1.31; inactive.
UBE2E2 gave TNF reporter robust z-score 2.65; inactive.
SPSB1 scored TNF reporter robust z-score -1; inactive.
SPSB1 showed TNF reporter robust z-score 0.07; inactive.
After knock-down of SPSB1 the results were TNF reporter robust z-score -0.49; inactive.
Silencing of SPSB1 resulted in: TNF reporter robust z-score -0.09; inactive.
With knock-down of TROAP, the screen gave TNF reporter robust z-score 0.35; inactive.
For TROAP the deposit lists TNF reporter robust z-score 1.14; inactive.
Depletion of TROAP resulted in: TNF reporter robust z-score 0.94; inactive.
TROAP showed TNF reporter robust z-score 1.53; inactive.
APEX2 showed TNF reporter robust z-score -0.11; inactive.
APEX2 showed TNF reporter robust z-score 0.52; inactive.
With knock-down of APEX2, the record shows TNF reporter robust z-score 0.05; inactive.
Knock-down of APEX2 came out at: TNF reporter robust z-score -0.18; inactive.
Silencing of SS18 came out at: TNF reporter robust z-score 0.26; inactive.
Depletion of SS18 gave: TNF reporter robust z-score -0.35; inactive.
After knock-down of SS18, the record shows TNF reporter robust z-score -0.21; inactive.
With knock-down of SS18, the record shows TNF reporter robust z-score 0.45; inactive.
